PubChem BioAssay AID1053208, Peter MacCallum Cancer Centre | 2014
The whole screen tested about 17,000 reagents; below is an unselected part. 788 of all reagents (4.7%) count as active. 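Calls rest on z-score classes alone; an extra cut-off of viability at most 70% of control was not applied to them.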

Assay: 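Find knock-downs that sensitise mouse osteosarcoma cells to doxorubicin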 (primary screen)
System: mouse osteosarcoma cells, early-passage culture from an engineered mouse model of fibroblastic bone tumour
Knock-down reagent: siRNA pool against mouse genes, 40 nM
Duration: about 120 h (48 h before drug, then 72 h with drug)
Conditions: doxorubicin 100 nM for 72 h, roughly 30-40% inhibitory dose
Measurement: 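Viability read as ATP luminescence after 72 h of 100 nM doxorubicin or none, duplicate wells averaged, scaled to non-targeting siRNA, then expressed as robust z-scores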
Direction: viability z-score with doxorubicin and doxorubicin viability vs non-targeting: higher = more viable cells under doxorubicin; viability z-score without drug: higher = more viable cells with knock-down alone; z-score of drug to no-drug ratio: higher = less drug sensitisation by knock-down
Hit rule: 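Called active if knock-down leaves viability unchanged without drug (z within -2 to 2) but lowers it with doxorubicin (z at or under -2)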

Target gene | combined z-score class | viability z-score with doxorubicin | viability z-score without drug | z-score of drug to no-drug ratio | doxorubicin viability vs non-targeting | call
Ptch2 (patched 2) | no change with or without drug | 0.56 | 0.17 | 0.56 | 0.99 | inactive
Gucy2f (guanylate cyclase 2f) | no change with or without drug | 1.46 | 1.52 | 0.56 | 1.07 | inactive
Raly (hnRNP-associated with lethal yellow) | no change with or without drug | -0.22 | 1.01 | -0.79 | 0.92 | inactive
Smarcd2 (SWI/SNF related BAF chromatin remodeling complex subunit D2) | no change with or without drug | -0.11 | -0.17 | 0.11 | 0.93 | inactive
Nip7 (NIP7, nucleolar pre-rRNA processing protein) | high cell count with doxorubicin only | 2.25 | -0.17 | 2.59 | 1.14 | inactive
Psmd14 (proteasome (prosome, macropain) 26S subunit, non-ATPase, 14) | no change with or without drug | -0.67 | -0.84 | 0 | 0.88 | inactive
Lce1a1 (late cornified envelope 1A1) | high cell count with doxorubicin only | 2.02 | 1.85 | 0.9 | 1.12 | inactive
Pik3r5 (phosphoinositide-3-kinase regulatory subunit 5) | no change with or without drug | -1.35 | 0.17 | -1.46 | 0.82 | inactive
Nkx2-2 (NK2 homeobox 2) | no change with or without drug | 0.67 | -0.67 | 1.35 | 1 | inactive
Paip1 (polyadenylate binding protein-interacting protein 1) | no change with or without drug | -0.45 | -0.34 | -0.11 | 0.9 | inactive
Rufy1 (RUN and FYVE domain containing 1) | high cell count with and without drug | 3.04 | 2.19 | 1.57 | 1.21 | inactive
Capg (capping actin protein, gelsolin like) | no change with or without drug | -0.45 | -0.51 | 0 | 0.9 | inactive
Aig1 (androgen-induced 1) | no change with or without drug | -0.34 | 1.18 | -1.01 | 0.91 | inactive
Ptdss2 (phosphatidylserine synthase 2) | no change with or without drug | -1.57 | 1.52 | -2.36 | 0.8 | inactive
B4galt1 | no change with or without drug | 0.9 | 0.51 | 0.67 | 1.02 | inactive
Senp2 (SUMO/sentrin specific peptidase 2) | low cell count with doxorubicin only | -2.02 | -1.52 | -1.12 | 0.76 | active
Vmn2r29 (vomeronasal 2, receptor 29) | no change with or without drug | 0 | -0.17 | 0.22 | 0.94 | inactive
Vipas39 | no change with or without drug | 0.67 | 0.84 | 0.22 | 1 | inactive
2900092C05Rik (RIKEN cDNA 2900092C05 gene) | low cell count with and without drug | -2.25 | -2.19 | -0.9 | 0.74 | inactive
Nrsn1 (neurensin 1) | low cell count with and without drug | -2.92 | -2.36 | -1.57 | 0.68 | inactive
Or13d1 (olfactory receptor family 13 subfamily D member 1) | no change with or without drug | 0.9 | 1.85 | -0.22 | 1.02 | inactive
Cgrrf1 (cell growth regulator with ring finger domain 1) | no change with or without drug | -0.67 | -1.69 | 0.67 | 0.88 | inactive
Rab11a (RAB11A, member RAS oncogene family) | no change with or without drug | 0 | -0.17 | 0.22 | 0.94 | inactive
Chchd4 (coiled-coil-helix-coiled-coil-helix domain containing 4) | no change with or without drug | -0.9 | 1.18 | -1.57 | 0.86 | inactive
Tgif1 (TGFB-induced factor homeobox 1) | no change with or without drug | -1.91 | -1.18 | -1.12 | 0.77 | inactive
Impact (impact, RWD domain protein) | no change with or without drug | 0 | -0.17 | 0.22 | 0.94 | inactive
Stk3 (serine/threonine kinase 3) | no change with or without drug | -0.9 | -1.52 | 0.22 | 0.86 | inactive
Prmt2 (protein arginine N-methyltransferase 2) | no change with or without drug | 0.22 | -0.17 | 0.45 | 0.96 | inactive
Or6c65 (olfactory receptor family 6 subfamily C member 65) | no change with or without drug | 0 | -0.67 | 0.56 | 0.94 | inactive
Mir9-2hg (Mir9-2 host gene) | no change with or without drug | 0.11 | 0.17 | 0.11 | 0.95 | inactive
Slc30a8 | low cell count with doxorubicin only | -2.25 | -0.84 | -1.8 | 0.74 | active

As entered above:
Entry of Nkx2-2 (NK2 homeobox 2) under “viability z-score without drug”: -0.67
Impact (impact, RWD domain protein), viability z-score with doxorubicin = 0
Rufy1 (RUN and FYVE domain containing 1), z-score of drug to no-drug ratio = 1.57
Nrsn1 (neurensin 1), viability z-score with doxorubicin = -2.92
For “doxorubicin viability vs non-targeting”, Capg (capping actin protein, gelsolin like) has 0.9
Result for Gucy2f (guanylate cyclase 2f) under “combined z-score class”: no change with or without drug

The list goes on:
Target gene | combined z-score class | viability z-score with doxorubicin | viability z-score without drug | z-score of drug to no-drug ratio | doxorubicin viability vs non-targeting | call
Mettl15 (methyltransferase like 15) | no change with or without drug | 0.34 | 0.17 | 0.34 | 0.97 | inactive
Ern1 (endoplasmic reticulum to nucleus signalling 1) | no change with or without drug | -1.12 | -0.17 | -1.01 | 0.84 | inactive
Trmt6 (tRNA methyltransferase 6) | no change with or without drug | 0.9 | 0.17 | 0.9 | 1.02 | inactive
Mat2a (methionine adenosyltransferase 2A) | low cell count with doxorubicin only | -2.36 | -0.34 | -2.25 | 0.73 | active
Dhx35 (DEAH-box helicase 35) | no change with or without drug | 1.46 | 0.67 | 1.12 | 1.07 | inactive
Map1b (microtubule-associated protein 1B) | no change with or without drug | 1.35 | 0.34 | 1.24 | 1.06 | inactive
Sdr42e1 (short chain dehydrogenase/reductase family 42E, member 1) | no change with or without drug | -1.12 | 0.84 | -1.57 | 0.84 | inactive
Ube2e3 (ubiquitin-conjugating enzyme E2E 3) | no change with or without drug | -0.45 | 0.17 | -0.45 | 0.9 | inactive
Or4k45 (olfactory receptor family 4 subfamily K member 45) | no change with or without drug | -0.22 | -1.18 | 0.79 | 0.92 | inactive
C1ql2 (complement component 1, q subcomponent-like 2) | no change with or without drug | 0.56 | 1.01 | 0 | 0.99 | inactive
Ahrr (aryl-hydrocarbon receptor repressor) | no change with or without drug | -1.57 | -0.17 | -1.46 | 0.8 | inactive
Apof (apolipoprotein F) | no change with or without drug | 1.8 | 0 | 2.02 | 1.1 | inactive
Hnrnpab (heterogeneous nuclear ribonucleoprotein A/B) | no change with or without drug | -0.67 | 0.17 | -0.67 | 0.88 | inactive
Arhgef7 (Rho guanine nucleotide exchange factor) | no change with or without drug | -1.12 | 0 | -1.12 | 0.84 | inactive
Or52n4 (olfactory receptor family 52 subfamily N member 4) | no change with or without drug | 0 | -0.84 | 0.67 | 0.94 | inactive
Ube2d1 (ubiquitin-conjugating enzyme E2D 1) | no change with or without drug | -0.45 | 0.51 | -0.67 | 0.9 | inactive
Kcnq4 (potassium voltage-gated channel, subfamily Q, member 4) | no change with or without drug | -0.67 | 0 | -0.56 | 0.88 | inactive
Celf4 (CUGBP, Elav-like family member 4) | no change with or without drug | 0.67 | 1.52 | -0.22 | 1 | inactive
H3c11 (H3 clustered histone 11) | no change with or without drug | 0.22 | 0 | 0.34 | 0.96 | inactive
